In publication PMC12266347:
No constants are given. Whether binding was seen depends on the method and setting. In cells and extracts the contact can be indirect. A yes stands for co-enrichment or nearness to the bait. Other partners may have been found. Where a sequence is shown, tags or fusion partners need not be part of it.

Protein sequences, listed by entry. Tags and fused reporters are not part of them.
UniProt A6NMY6: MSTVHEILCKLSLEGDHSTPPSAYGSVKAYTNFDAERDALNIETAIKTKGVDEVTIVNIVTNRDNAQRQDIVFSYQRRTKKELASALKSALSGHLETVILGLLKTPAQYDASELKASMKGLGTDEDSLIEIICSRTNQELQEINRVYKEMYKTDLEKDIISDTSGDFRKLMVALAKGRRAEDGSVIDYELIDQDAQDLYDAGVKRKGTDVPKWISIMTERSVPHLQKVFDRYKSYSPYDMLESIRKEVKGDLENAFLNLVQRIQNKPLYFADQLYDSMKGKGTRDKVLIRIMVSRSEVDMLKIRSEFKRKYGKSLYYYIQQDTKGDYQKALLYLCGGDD
UniProt P11586: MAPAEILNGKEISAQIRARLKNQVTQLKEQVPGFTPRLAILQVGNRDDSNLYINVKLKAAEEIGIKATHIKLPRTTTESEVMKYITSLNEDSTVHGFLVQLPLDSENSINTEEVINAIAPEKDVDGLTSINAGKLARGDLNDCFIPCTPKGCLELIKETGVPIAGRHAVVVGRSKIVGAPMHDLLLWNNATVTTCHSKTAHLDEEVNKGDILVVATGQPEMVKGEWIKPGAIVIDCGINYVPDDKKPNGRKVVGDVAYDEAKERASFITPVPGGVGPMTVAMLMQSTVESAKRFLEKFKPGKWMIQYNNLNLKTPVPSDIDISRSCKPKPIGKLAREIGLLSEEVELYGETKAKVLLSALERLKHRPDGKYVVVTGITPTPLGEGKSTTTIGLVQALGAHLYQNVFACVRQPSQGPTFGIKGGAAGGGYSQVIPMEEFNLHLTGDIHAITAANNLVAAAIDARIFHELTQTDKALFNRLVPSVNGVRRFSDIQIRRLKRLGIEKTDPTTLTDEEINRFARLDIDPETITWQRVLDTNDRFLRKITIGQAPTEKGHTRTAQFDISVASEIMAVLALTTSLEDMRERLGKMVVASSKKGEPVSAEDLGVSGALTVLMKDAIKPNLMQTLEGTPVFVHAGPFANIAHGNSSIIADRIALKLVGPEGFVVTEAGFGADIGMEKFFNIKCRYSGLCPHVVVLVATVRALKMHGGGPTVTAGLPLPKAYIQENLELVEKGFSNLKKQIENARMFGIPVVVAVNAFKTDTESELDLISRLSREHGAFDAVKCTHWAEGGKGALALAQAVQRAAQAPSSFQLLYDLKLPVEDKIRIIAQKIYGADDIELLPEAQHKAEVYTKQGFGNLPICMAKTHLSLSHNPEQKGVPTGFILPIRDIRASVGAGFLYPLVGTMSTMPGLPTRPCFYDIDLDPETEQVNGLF
UniProt Q07955: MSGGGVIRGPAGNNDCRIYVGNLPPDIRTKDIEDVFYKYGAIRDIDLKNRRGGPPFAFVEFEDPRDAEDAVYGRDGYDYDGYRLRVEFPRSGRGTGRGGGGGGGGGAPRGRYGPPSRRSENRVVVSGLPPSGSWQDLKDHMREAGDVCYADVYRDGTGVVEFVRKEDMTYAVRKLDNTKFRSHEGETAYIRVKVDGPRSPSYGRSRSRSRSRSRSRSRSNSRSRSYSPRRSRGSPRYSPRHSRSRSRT
UniProt P67809: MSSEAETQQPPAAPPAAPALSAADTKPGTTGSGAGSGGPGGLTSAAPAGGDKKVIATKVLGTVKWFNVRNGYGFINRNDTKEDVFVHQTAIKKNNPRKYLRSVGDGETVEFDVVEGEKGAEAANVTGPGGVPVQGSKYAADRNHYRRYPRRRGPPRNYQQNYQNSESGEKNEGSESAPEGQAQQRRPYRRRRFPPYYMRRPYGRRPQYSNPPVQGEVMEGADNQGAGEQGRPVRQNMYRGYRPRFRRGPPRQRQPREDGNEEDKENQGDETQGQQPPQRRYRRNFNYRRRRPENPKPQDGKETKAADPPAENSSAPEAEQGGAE

Molecular target: T1, BioID2-CCDC43 fusion protein (Myc-BioID2-CCDC43; coiled-coil domain containing protein 43) (human) (UniProt Q96MW1)
T1 sequence: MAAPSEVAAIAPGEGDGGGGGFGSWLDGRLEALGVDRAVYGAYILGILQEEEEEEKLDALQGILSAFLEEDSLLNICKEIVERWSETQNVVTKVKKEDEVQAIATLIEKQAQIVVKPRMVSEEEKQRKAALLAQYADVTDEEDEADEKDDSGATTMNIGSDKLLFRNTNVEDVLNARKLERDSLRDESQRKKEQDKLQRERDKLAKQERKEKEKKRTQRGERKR
Experiment: proximity labelling; BioID2: Myc-BioID2-CCDC43 transiently expressed in HEK293-T cells, 50 uM biotin for 17 h, lysis, streptavidin bead pull-down of biotinylated proteins, on-bead digestion, nLC-MS/MS; control Myc-BioID2 alone (empty vector); hits filtered at log2 fold change 0.5; two biological replicates, three technical acquisitions each

binding, binds:
ANXA2P2 (from UniProt A6NMY6 1-339)
MTHFD1 (from UniProt P11586 1-935)
SRSF1 (from UniProt Q07955 1-248)
YBX1 (from UniProt P67809 1-324)
